Data taken from the supplement of paper PMC6411743.
± gives the standard deviation of the averaged measurements. This is a selection; strong and weak results do not stand in their true shares.

Columns and labels:
Assay in all cases: NP40-soluble protein abundance relative to vehicle (solubility fold change) (ratio); higher = more soluble protein in presence of ATP
PREB = target: T1, PREB (UniProt Q9HCU5)
T1 sequence (whole entry): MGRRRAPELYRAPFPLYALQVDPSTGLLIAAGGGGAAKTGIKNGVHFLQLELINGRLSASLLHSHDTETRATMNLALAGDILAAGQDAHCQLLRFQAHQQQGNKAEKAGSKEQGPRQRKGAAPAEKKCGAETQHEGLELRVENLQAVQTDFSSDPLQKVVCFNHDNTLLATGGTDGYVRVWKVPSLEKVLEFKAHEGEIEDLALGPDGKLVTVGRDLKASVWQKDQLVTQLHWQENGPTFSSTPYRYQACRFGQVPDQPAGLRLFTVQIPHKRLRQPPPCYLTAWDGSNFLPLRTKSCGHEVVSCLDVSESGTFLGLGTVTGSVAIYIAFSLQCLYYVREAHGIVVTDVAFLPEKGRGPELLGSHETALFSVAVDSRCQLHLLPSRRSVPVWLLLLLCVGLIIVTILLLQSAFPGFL
In short: (§1)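 In three independent experiments, Jurkat crude lysate made by Dounce homogenisation was treated for 10 min at room temperature and then 3 min at 37 °C with eight concentrations ranging from 0.1 to 10 mM. It was then solubilised with 0.8% NP40 plus benzonase for 60 min at 4 °C and ultracentrifuged. The supernatant was TMT-labelled for LC-MS/MS, and each value is the fold change against the detergent-processed vehicle for the same replicate, using vsn-normalised intensities.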

PRKRIP1 = target: T2, PRKRIP1 (UniProt Q9H875)
T2 sequence (whole entry): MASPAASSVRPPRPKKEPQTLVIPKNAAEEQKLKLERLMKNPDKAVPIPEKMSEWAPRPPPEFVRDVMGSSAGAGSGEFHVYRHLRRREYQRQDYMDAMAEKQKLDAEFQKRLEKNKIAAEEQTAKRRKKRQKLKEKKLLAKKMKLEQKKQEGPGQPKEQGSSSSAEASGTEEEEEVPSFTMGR
In short: as §1

RAB3GAP2 = target: T3, RAB3GAP2 (UniProt Q9H2M9)
T3 sequence (whole entry): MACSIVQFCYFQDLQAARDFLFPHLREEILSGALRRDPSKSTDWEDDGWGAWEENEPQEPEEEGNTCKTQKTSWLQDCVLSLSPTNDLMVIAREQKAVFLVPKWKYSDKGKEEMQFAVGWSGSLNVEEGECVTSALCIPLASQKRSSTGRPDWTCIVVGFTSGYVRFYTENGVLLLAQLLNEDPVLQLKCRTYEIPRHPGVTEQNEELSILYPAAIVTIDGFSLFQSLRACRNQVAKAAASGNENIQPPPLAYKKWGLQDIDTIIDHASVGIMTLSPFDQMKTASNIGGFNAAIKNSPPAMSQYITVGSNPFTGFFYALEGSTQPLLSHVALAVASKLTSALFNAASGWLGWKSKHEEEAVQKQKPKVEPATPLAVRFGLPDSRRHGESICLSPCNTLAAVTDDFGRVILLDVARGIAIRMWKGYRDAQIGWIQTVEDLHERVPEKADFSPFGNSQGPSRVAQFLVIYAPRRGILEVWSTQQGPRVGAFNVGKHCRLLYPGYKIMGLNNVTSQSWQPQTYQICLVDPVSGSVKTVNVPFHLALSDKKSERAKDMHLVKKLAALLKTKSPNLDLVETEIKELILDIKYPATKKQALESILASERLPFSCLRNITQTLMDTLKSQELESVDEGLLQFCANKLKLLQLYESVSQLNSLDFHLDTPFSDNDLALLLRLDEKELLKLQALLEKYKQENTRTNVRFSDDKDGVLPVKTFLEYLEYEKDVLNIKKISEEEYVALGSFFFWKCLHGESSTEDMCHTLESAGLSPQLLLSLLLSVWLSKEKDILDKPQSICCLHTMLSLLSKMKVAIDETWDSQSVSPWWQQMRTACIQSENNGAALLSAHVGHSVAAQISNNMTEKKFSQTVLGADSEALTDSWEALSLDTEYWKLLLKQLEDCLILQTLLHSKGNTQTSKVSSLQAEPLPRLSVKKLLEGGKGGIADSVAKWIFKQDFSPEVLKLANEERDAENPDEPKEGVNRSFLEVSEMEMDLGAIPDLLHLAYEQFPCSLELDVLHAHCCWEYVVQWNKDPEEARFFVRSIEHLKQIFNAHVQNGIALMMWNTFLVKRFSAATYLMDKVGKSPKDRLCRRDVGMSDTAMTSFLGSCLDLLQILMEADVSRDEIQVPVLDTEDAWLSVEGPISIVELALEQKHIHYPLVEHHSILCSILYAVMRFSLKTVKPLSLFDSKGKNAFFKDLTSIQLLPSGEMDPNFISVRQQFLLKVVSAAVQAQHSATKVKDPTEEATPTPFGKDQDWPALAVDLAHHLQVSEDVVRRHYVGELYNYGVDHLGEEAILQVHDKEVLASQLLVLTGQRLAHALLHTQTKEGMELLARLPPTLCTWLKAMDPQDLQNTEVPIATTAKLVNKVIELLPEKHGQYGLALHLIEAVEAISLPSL
In short: as §1

SMYD3 = target: T4, SMYD3 (UniProt Q9H7B4)
T4 sequence (whole entry): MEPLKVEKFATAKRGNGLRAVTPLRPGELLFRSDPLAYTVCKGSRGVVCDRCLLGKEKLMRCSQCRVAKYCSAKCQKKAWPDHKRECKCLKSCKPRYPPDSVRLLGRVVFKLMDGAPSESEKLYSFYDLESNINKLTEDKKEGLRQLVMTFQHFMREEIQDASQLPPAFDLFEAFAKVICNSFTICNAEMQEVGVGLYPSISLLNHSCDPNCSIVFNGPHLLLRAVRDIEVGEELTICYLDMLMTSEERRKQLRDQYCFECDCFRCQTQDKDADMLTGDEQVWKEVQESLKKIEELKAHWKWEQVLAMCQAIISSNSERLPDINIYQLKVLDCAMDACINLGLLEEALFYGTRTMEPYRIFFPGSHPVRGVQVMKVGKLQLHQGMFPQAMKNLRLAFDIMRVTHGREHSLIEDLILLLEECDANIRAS
In short: as §1

UniProt Q9H078-2 = target: T5, UniProt Q9H078-2
T5 sequence (whole entry): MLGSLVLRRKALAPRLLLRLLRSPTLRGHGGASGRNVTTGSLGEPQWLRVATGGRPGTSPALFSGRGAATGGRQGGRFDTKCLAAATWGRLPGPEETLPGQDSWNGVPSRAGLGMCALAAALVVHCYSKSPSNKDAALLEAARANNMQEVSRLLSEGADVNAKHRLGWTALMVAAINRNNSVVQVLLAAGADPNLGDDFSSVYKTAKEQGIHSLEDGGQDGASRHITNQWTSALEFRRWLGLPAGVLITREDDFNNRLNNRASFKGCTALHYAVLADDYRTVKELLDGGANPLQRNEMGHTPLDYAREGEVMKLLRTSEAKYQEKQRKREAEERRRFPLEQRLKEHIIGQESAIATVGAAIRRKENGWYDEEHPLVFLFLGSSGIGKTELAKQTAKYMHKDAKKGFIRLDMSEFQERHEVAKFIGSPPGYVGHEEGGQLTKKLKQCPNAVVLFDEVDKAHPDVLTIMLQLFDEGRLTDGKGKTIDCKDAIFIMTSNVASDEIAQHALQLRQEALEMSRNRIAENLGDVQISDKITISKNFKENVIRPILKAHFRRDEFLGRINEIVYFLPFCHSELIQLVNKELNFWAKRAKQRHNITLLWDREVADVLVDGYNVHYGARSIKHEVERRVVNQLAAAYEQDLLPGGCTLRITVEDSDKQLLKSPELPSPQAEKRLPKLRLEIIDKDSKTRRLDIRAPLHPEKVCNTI
In short: as §1

For `Nc1ncnc2c1ncn2[C@@H]1O[C@H](COP(=O)(O)OP(=O)(O)OP(=O)(O)O)[C@@H](O)[C@H]1O` [adenosine triphosphate], the NP40-soluble protein abundance (PREB; concentration: 6mM) was 1.02 ± 0.052, the NP40-soluble protein abundance (PREB; concentration: 8mM) was 1.02 ± 0.063 and the NP40-soluble protein abundance (PREB; concentration: 10mM) was 1.02 ± 0.042. The NP40-soluble protein abundance (PRKRIP1; concentration: 1mM) was 0.946 ± 0.088, the NP40-soluble protein abundance (PRKRIP1; concentration: 2mM) was 0.958 ± 0.06 and the NP40-soluble protein abundance (PRKRIP1; concentration: 4mM) was 0.954 ± 0.073. It also gave an NP40-soluble protein abundance (PRKRIP1; concentration: 6mM) of 0.999 ± 0.021, an NP40-soluble protein abundance (PRKRIP1; concentration: 8mM) of 0.972 ± 0.021 and an NP40-soluble protein abundance (PRKRIP1; concentration: 10mM) of 0.907 ± 0.18. It also gave an NP40-soluble protein abundance (RAB3GAP2; concentration: 1mM) of 1.04 ± 0.055, an NP40-soluble protein abundance (RAB3GAP2; concentration: 2mM) of 1.02 ± 0.044 and an NP40-soluble protein abundance (RAB3GAP2; concentration: 4mM) of 0.99 ± 0.041. It also gave an NP40-soluble protein abundance (RAB3GAP2; concentration: 6mM) of 0.978 ± 0.064, an NP40-soluble protein abundance (RAB3GAP2; concentration: 8mM) of 1.01 ± 0.028 and an NP40-soluble protein abundance (RAB3GAP2; concentration: 10mM) of 0.99 ± 0.031. It also gave an NP40-soluble protein abundance (SMYD3; concentration: 1mM) of 1.07 ± 0.11, an NP40-soluble protein abundance (SMYD3; concentration: 2mM) of 1.06 ± 0.081 and an NP40-soluble protein abundance (SMYD3; concentration: 4mM) of 1.03 ± 0.1. For the same compound, the NP40-soluble protein abundance (SMYD3; concentration: 6mM) was 0.989 ± 0.12, the NP40-soluble protein abundance (SMYD3; concentration: 8mM) was 1.09 ± 0.097 and the NP40-soluble protein abundance (SMYD3; concentration: 10mM) was 1.06 ± 0.071. It also gave an NP40-soluble protein abundance (UniProt Q9H078-2; concentration: 1mM) of 1.13 ± 0.023, an NP40-soluble protein abundance (UniProt Q9H078-2; concentration: 2mM) of 1.1 ± 0.029 and an NP40-soluble protein abundance (UniProt Q9H078-2; concentration: 4mM) of 1.09 ± 0.047. The NP40-soluble protein abundance (UniProt Q9H078-2; concentration: 6mM) was 1.08 ± 0.025, the NP40-soluble protein abundance (UniProt Q9H078-2; concentration: 8mM) was 1.11 ± 0.035 and the NP40-soluble protein abundance (UniProt Q9H078-2; concentration: 10mM) was 1.12 ± 0.046.
